# Paper PMC8892744
# Amino acid sequences for entries named in this document (tags omitted). A change or cut given only in a name is not applied to a line headed by its entry. Residues count along the entry.
# UniProt Q02413, residues 50-1049: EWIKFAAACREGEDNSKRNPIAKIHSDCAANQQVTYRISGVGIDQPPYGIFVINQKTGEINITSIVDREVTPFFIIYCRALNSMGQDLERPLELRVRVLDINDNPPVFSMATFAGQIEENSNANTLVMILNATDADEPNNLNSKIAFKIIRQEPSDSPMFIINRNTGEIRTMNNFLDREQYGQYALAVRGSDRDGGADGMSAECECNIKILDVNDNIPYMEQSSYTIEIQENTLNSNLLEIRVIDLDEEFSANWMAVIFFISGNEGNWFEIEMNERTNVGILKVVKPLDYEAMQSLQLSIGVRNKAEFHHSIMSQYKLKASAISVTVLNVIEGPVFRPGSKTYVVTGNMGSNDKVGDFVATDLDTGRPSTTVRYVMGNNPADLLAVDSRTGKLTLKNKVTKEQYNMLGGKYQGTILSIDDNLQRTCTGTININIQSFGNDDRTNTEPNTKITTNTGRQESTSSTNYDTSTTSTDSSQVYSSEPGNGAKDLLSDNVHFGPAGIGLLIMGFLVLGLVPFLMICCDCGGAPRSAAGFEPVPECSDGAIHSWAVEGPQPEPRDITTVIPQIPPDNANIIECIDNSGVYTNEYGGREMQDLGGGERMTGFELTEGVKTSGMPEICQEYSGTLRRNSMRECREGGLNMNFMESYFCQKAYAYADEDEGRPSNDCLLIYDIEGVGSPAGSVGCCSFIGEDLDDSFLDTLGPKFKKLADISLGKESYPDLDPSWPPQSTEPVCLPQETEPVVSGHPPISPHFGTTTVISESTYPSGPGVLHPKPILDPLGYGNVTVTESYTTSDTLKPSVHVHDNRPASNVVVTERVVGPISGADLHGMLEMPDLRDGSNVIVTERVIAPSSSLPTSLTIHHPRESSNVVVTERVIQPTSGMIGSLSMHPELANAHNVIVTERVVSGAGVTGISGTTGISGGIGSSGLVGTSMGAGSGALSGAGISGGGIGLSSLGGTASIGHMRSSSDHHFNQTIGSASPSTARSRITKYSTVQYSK
# UniProt Q99558: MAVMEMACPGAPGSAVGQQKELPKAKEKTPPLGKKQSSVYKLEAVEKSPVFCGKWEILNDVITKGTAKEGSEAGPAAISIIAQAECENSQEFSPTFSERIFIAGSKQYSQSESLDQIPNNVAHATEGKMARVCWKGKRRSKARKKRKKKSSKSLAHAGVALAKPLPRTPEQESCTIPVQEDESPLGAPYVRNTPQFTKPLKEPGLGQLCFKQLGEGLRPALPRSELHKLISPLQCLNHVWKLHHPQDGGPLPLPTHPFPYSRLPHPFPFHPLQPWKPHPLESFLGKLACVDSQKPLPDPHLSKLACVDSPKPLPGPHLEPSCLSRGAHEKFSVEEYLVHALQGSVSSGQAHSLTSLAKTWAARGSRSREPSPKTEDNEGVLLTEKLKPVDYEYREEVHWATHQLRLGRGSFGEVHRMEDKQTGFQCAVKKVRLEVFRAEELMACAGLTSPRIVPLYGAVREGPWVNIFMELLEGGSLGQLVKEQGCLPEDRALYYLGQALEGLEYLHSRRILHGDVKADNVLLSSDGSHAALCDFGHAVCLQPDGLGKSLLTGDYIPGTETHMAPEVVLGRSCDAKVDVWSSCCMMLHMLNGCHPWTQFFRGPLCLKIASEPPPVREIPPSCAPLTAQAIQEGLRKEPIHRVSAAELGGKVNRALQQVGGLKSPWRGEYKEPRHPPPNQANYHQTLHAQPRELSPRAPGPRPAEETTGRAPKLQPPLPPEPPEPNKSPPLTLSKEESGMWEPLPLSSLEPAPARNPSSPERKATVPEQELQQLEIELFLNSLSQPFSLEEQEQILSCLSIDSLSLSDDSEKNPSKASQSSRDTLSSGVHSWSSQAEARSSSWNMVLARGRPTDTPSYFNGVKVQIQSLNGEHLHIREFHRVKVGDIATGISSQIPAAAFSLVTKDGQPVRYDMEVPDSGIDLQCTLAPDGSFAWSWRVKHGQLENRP
# UniProt Q9UNE7: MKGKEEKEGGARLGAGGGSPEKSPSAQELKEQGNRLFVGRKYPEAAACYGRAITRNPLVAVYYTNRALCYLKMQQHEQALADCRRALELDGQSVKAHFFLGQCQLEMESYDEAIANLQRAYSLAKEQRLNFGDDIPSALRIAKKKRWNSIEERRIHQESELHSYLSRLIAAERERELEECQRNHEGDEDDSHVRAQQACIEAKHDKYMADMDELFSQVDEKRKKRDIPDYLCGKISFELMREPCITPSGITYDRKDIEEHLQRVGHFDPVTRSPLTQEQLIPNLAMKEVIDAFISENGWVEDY
# UniProt Q96KS9: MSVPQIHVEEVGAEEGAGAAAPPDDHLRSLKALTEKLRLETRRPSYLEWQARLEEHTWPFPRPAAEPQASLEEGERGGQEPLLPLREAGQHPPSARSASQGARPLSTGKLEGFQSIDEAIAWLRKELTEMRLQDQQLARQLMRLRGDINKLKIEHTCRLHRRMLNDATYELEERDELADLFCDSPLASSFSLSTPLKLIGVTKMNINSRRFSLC
# No constants are given. Whether binding was seen depends on the method and setting. In cells and extracts the contact can be indirect. Some binding calls cover weakened binding; strength is not graded here.
# What was measured:
# [1] = target: desmoglein-1 (DSG1) (human (endogenous in K562S and K562R)) (UniProt Q02413); assay: co-IP; endogenous DSG1, Erbin, NIK, TRAF3, CHIP and c-cbl in K562S and K562R cell lysates; also K562R cells treated with 2 μg/ml anti-FAM167A neutralizing antibody or isotype control for 3 h; lysis buffer 20 mM Tris-HCl pH 8.0, 150 mM NaCl, 1% Triton X-100, 10% glycerol, 2 mM EDTA; Protein G Sepharose beads, 4 °C; immunoblot
# [2] = target: desmoglein-1 (DSG1) (human (endogenous in K562S and K562R)) (UniProt Q02413); assay: co-IP; endogenous proteins in K562R cell lysates; lysis buffer 20 mM Tris-HCl pH 8.0, 150 mM NaCl, 1% Triton X-100, 10% glycerol, 2 mM EDTA; Protein G Sepharose beads, 4 °C; immunoblot
binding [1],binding [2],Substance
binds,,NF-κB-inducing kinase (NIK) (from UniProt Q99558 1-947) (enzyme)
no binding,,CHIP (from UniProt Q9UNE7 1-303) (enzyme)
,binds,"FAM167A (endogenous, K562R cells) (from UniProt Q96KS9 1-214)"
